In doi:10.1101/2023.06.21.544075:
No constants are given. Whether binding was seen depends on the method and setting.

Amino acid sequences for entries named in this document (tags omitted). Residues count along the entry.
UniProt Q05996, residues 39-365: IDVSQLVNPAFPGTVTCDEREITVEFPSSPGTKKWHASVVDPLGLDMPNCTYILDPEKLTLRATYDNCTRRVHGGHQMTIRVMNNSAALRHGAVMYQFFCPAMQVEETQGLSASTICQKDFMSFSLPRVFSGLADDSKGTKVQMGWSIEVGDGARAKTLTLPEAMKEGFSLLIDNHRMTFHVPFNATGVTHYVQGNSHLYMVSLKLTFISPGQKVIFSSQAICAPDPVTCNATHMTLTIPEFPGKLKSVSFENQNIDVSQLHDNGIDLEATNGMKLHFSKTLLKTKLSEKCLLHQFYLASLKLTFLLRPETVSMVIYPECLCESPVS

Biological target: uncleaved human ZP2 N-terminal region hZP2-N1N2N3 (human) (UniProt Q05996)
Experiment: SEC-MALS

Question: For “uncleaved human ZP2 N-terminal region hZP2-N1N2N3 (from UniProt Q05996 39-365) (domain or fragment)”, which binding is on record?
Answer: no binding
